Reference: article PMC7086158
These are yes or no findings as the source states them, for the method shown. In cells and extracts the contact can be indirect. Some results given as binding are weak or reduced against the parent protein; the word gives no strength. For part of these data: Tags and fused reporters may be left off the sequences shown. Blank lines part the entries; values can stand above or below the molecule they belong to.

The chains behind the UniProt entries cited, without tags or fusion partners.
UniProt O75533: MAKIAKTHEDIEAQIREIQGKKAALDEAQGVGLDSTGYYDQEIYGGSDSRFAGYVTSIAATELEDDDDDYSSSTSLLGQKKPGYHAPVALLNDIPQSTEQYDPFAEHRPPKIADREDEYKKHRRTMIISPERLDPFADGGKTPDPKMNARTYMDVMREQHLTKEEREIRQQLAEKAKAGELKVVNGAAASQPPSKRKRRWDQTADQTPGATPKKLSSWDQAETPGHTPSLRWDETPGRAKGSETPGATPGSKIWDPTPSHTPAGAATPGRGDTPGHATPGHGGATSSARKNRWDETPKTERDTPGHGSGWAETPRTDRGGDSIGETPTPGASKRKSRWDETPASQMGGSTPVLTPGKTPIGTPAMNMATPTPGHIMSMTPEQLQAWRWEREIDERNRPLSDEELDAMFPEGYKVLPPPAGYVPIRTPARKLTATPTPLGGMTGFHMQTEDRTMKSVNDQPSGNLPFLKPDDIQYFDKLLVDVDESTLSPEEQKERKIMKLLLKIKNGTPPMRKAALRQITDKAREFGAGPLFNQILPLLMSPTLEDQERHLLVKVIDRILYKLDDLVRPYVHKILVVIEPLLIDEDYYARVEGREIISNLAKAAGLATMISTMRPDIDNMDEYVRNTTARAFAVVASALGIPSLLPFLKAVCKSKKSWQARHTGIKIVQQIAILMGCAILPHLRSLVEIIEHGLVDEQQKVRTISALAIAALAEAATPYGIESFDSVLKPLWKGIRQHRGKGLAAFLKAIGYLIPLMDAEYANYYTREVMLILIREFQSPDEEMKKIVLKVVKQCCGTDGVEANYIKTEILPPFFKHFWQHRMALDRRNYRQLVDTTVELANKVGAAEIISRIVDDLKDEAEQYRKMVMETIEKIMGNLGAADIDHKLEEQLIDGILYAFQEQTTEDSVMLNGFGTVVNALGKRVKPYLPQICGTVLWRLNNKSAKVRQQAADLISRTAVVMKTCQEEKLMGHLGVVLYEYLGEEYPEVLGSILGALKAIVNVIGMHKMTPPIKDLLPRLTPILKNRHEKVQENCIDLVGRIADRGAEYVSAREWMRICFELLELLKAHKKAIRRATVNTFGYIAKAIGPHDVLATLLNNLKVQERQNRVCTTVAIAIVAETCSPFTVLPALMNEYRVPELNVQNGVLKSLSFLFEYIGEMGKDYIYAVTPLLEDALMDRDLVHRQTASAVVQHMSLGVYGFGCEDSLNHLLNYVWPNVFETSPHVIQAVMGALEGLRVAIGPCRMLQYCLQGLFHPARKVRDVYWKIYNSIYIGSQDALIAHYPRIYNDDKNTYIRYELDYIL
UniProt P62140: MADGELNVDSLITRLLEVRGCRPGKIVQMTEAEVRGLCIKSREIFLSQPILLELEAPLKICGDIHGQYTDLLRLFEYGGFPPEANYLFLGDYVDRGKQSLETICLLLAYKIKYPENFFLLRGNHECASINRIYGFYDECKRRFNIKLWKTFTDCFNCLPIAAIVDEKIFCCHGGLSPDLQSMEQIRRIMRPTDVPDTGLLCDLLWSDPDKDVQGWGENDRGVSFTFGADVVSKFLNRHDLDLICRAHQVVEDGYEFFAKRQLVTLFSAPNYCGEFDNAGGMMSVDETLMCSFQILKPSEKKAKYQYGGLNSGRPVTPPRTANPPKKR

Experiments:
[1] = target: T1, NUAK1 (endogenous in U2OS cells) (human (endogenous in U2OS)) (UniProt O60285); assay: proximity ligation; Duolink In Situ PLA in fixed U2OS cells (Figure 1I)
T1 sequence: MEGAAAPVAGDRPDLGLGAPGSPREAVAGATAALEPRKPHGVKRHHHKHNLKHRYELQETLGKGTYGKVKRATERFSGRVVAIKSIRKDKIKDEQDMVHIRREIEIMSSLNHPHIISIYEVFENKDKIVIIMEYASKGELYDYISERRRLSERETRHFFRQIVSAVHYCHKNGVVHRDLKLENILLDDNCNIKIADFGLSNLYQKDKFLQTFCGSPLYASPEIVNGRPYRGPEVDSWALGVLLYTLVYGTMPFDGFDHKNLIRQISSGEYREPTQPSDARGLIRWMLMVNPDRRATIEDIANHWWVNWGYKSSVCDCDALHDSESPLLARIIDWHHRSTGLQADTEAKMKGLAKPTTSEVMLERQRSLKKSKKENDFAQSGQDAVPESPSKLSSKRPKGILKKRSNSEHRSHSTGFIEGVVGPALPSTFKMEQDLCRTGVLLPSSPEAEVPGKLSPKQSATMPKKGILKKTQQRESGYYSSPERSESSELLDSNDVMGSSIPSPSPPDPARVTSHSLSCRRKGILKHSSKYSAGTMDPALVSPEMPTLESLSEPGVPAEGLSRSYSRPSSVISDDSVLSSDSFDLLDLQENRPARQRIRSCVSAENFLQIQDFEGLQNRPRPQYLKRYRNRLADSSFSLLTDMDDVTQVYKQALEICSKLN

HA-tagged NUAK1 (mouse) [2] = target: T2, HA-tagged NUAK1 (mouse) (UniProt Q641K5); assay: proximity ligation; Duolink In Situ PLA in U2OS cells expressing HA-tagged NUAK1 or empty vector, treated for 3 h with 50 uM GILK or control peptide (Figure 2D)
T2 sequence: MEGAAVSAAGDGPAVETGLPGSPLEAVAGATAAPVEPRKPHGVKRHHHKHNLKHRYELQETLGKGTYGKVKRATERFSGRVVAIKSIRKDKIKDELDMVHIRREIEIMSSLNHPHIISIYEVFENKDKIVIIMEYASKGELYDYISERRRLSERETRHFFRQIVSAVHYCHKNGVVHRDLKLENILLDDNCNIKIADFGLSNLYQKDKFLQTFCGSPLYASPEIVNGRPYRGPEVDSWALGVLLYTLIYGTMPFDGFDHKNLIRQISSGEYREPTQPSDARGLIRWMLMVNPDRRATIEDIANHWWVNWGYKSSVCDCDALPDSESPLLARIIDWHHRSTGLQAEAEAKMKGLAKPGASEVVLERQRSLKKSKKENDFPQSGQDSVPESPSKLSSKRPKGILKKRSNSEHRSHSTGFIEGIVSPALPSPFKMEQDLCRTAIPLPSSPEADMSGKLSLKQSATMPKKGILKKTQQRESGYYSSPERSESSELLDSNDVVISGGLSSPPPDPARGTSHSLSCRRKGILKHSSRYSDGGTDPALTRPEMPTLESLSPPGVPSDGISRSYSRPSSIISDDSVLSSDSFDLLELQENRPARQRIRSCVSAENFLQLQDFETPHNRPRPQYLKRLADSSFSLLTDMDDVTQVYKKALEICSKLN

[3] = target: T3, C-terminally FLAG-tagged murine Nuak1 (mouse) (UniProt Q641K5); assay: co-IP; anti-FLAG immunoprecipitation from lysates of U2OS cells stably expressing N- or C-terminally FLAG-tagged NUAK1, immunoblot (Figure S1C)
T3 sequence: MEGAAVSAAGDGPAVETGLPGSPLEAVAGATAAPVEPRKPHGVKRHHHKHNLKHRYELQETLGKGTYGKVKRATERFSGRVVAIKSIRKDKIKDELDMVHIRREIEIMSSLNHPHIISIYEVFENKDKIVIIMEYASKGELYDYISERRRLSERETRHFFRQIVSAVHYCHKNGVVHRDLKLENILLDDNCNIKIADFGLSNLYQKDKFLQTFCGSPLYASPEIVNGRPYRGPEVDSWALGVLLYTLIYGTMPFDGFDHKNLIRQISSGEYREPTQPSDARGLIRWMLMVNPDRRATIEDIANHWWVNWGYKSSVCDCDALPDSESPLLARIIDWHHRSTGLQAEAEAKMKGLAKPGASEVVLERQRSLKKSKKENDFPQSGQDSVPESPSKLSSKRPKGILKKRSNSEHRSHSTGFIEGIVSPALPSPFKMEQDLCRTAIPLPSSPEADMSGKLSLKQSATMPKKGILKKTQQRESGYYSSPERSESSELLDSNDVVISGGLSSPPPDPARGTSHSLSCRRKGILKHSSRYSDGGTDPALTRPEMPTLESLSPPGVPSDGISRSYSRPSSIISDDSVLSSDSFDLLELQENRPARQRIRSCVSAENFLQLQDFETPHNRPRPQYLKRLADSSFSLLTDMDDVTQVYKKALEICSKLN

[4] = target: T4, N-terminally FLAG-tagged murine Nuak1 (mouse) (UniProt Q641K5); assay: as above
T4 sequence: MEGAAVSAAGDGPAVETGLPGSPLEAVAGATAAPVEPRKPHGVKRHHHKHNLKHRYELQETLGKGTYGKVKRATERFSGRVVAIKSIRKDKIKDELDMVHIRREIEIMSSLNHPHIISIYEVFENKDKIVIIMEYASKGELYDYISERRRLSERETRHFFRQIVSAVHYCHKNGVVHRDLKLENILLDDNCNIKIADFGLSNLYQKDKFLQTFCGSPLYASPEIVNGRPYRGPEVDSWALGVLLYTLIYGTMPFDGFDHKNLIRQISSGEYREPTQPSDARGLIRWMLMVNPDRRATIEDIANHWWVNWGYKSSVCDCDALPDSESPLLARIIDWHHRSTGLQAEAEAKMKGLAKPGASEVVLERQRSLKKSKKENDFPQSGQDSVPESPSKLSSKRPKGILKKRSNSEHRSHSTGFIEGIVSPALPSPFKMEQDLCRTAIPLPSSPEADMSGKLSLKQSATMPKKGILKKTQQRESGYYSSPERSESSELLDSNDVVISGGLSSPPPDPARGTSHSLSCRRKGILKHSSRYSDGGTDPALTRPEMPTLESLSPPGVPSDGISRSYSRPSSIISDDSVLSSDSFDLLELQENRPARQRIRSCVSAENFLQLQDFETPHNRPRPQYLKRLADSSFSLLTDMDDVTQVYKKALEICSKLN

HA-tagged NUAK1 (mouse) [5] = target: T2, HA-tagged NUAK1 (mouse); assay: proximity ligation; Duolink In Situ PLA in fixed U2OS cells expressing HA-tagged NUAK1 or empty vector (Figure 2B)
HA-tagged NUAK1 (mouse) [6] = target: T2, HA-tagged NUAK1 (mouse); assay: co-IP; anti-HA immunoprecipitates of U2OS cells expressing HA-tagged NUAK1 or empty vector, HEGN buffer (140 mM KCl, 0.1% NP-40), immunoblot
[7] = target: SF3B1 (human (endogenous in U2OS)) (UniProt O75533); assay: proximity ligation; Duolink In Situ PLA in fixed U2OS cells (Figure 1I)
[8] = target: protein phosphatase catalytic subunit beta (PPP1CB) (human (endogenous in U2OS)) (UniProt P62140); assay: proximity ligation; as a6: the GILK peptide added to the culture medium (50 uM, 3 h) displaces HA-NUAK1 from PPP1CB in cells; only the binder purified

Molecule: protein phosphatase catalytic subunit beta (PPP1CB) (from UniProt P62140 1-327) (enzyme)
binding (HA-tagged NUAK1 (mouse) [2]): binds
binding [3]: binds
binding [4]: binds

B2: Stearyl-R8-… peptide (peptide)
peptide: RRRRRRRRKRPKGILKKRS
modifications: stearyl on the N-terminus
binding [8]: binds

The remaining lines, values ahead:

binding [1]: binds
Molecule: SF3B1 (from UniProt O75533 1-1304)

binding (HA-tagged NUAK1 (mouse) [5]): binds
binding (HA-tagged NUAK1 (mouse) [2]): binds
binding (HA-tagged NUAK1 (mouse) [6]): binds
binding [7]: binds
B1: PNUTS (PP1-nuclear targeting subunit) (protein, UniProt Q96QC0 1-940)
chain: MGSGPIDPKELLKGLDSFLNRDGEVKSVDGISKIFSLMKEARKMVSRCTYLNILLQTRSPEILVKFIDVGGYKLLNNWLTYSKTTNNIPLLQQILLTLQHLPLTVDHLKQNNTAKLVKQLSKSSEDEELRKLASVLVSDWMAVIRSQSSTQPAEKDKKKRKDEGKSRTTLPERPLTEVKAETRAEEAPEKKREKPKSLRTTAPSHAKFRSTGLELETPSLVPVKKNASTVVVSDKYNLKPIPLKRQSNVAAPGDATPPAEKKYKPLNTTPNATKEIKVKIIPPQPMEGLGFLDALNSAPVPGIKIKKKKKVLSPTAAKPSPFEGKTSTEPSTAKPSSPEPAPPSEAMDADRPGTPVPPVEVPELMDTASLEPGALDAKPVESPGDPNQLTRKGRKRKSVTWPEEGKLREYFYFELDETERVNVNKIKDFGEAAKREILSDRHAFETARRLSHDNMEEKVPWVCPRPLVLPSPLVTPGSNSQERYIQAEREKGILQELFLNKESPHEPDPEPYEPIPPKLIPLDEECSMDETPYVETLEPGGSGGSPDGAGGSKLPPVLANLMGSMGAGKGPQGPGGGGINVQEILTSIMGSPNSHPSEELLKQPDYSDKIKQMLVPHGLLGPGPIANGFPPGGPGGPKGMQHFPPGPGGPMPGPHGGPGGPVGPRLLGPPPPPRGGDPFWDGPGDPMRGGPMRGGPGPGPGPYHRGRGGRGGNEPPPPPPPFRGARGGRSGGGPPNGRGGPGGGMVGGGGHRPHEGPGGGMGNSSGHRPHEGPGGGMGSGHRPHEGPGGSMGGGGGHRPHEGPGGGISGGSGHRPHEGPGGGMGAGGGHRPHEGPGGSMGGSGGHRPHEGPGHGGPHGHRPHDVPGHRGHDHRGPPPHEHRGHDGPGHGGGGHRGHDGGHSHGGDMSNRPVCRHFMMKGNCRYENNCAFYHPGVNGPPLP
